Values quoted from earlier work in patent publication US11891703B2, “Corrosion inhibition package” (DORF KETAL CHEMICALS FZE, priority 2017, dated 2024).
At least one structure is not confirmed: it was looked up by name or label, or the drawing left a doubt.

Conditions: cited from earlier work

CCCCCCOCCOCCOCCO [NOVEL® 6-3 Ethoxylate, CH3 (CH2)4CH2(OCH2CH2)3OH]
biodegradability: biodegradable
